These are yes or no findings as the source states them, for the method shown. Some results given as binding are weak or reduced against the parent protein; the word gives no strength. Sequences can lack the tags named with a protein.
Molecular target: T1, Saccharomyces cerevisiae Fig4p (Saccharomyces cerevisiae) (UniProt P42837)
T1 sequence (looked up): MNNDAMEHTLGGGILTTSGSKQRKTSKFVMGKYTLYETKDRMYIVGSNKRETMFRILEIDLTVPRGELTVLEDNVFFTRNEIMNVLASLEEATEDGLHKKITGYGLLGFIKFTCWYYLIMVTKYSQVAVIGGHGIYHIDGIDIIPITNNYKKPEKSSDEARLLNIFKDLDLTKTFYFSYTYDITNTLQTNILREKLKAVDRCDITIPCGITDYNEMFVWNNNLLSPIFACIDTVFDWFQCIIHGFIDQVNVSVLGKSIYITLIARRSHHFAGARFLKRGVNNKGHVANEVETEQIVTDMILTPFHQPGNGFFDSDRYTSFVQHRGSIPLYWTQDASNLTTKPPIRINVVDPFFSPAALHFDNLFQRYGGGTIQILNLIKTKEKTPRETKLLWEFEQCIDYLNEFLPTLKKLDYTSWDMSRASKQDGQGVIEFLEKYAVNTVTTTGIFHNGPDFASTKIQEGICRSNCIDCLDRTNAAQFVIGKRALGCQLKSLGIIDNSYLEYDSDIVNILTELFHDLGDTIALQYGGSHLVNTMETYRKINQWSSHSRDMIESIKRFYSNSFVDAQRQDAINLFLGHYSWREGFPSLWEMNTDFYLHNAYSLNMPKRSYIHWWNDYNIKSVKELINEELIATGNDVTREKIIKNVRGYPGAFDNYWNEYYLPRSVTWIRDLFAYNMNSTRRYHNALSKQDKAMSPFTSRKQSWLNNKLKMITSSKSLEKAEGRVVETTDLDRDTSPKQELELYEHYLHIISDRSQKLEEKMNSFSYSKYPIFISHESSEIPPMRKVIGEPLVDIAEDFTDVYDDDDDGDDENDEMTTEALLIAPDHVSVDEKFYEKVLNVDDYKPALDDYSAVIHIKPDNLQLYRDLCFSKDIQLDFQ
Assay: yeast two-hybrid

B1: Saccharomyces cerevisiae Vac14p (other)
chain: MEKSIAKGLSDKLYEKRKAAALELEKLVKQCVLEGDYDRIDKIIDELCRDYAYALHQPMARNAGLMGLAATAIALGINDVGRYLRNILPPVLACFGDQNDQVRFYACESLYNIAKIAKGEILVYFNEIFDVLCKISADTENSVRGAAELLDRLIKDIVAERASNYISIVNNGSHGLLPAIKTDPISGDVYQEEYEQDNQLAFSLPKFIPLLTERIYAINPDTRVFLVDWLKVLLNTPGLELISYLPSFLGGLFTFLGDSHKDVRTVTHTLMDSLLHEVDRISKLQTEIKMKRLERLKMLEDKYNNSSTPTKKADGALIAEKKKTLMTALGGLSKPLSMETDDTKLSNTNETDDERHLTSQEQLLDSEATSQEPLRDGEEYIPGQDINLNFPEVITVLVNNLASSEAEIQLIALHWIQVILSISPNVFIPFLSKILSVLLKLLSDSDPHITEIAQLVNGQLLSLCSSYVGKETDGKIAYGPIVNSLTLQFFDSRIDAKIACLDWLILIYHKAPNQILKHNDSMFLTLLKSLSNRDSVLIEKALSLLQSLCSDSNDNYLRQFLQDLLTLFKRDTKLVKTRANFIMRQISSRLSPERVYKVISSILDNYNDTTFVKMMIQILSTNLITSPEMSSLRNKLRTCEDGMFFNSLFKSWCPNPVSVISLCFVAENYELAYTVLQTYANYELKLNDLVQLDILIQLFESPVFTRMRLQLLEQQKHPFLHKCLFGILMIIPQSKAFETLNRRLNSLNIWTSQSYVMNNYIRQRENSNFCDSNSDISQRSVSQSKLHFQELINHFKAVSEEDEYSSDMIRLDHGANNKSLLLGSFLDGIDEDKQEIVTPISPMNEAINEEMESPNDNSSVILKDSGSLPFNRNVSDKLKK
notes: 880 amino acid polypeptide; In the Western blot it is the endogenous protein of yeast cell extracts; also called Vac14 yeast; YLR386W product
  binding: binds

— patent US20050142561A1 (published 2005)
